Measurements from patent publication US20140187612A1.
Results are given in words; binding and its absence hold for the method and conditions named. Binding calls can cover weak binding; strength is not graded here.

By UniProt entry, the sequences of proteins in these tests, tags left out. Where a name states a change or a piece, a line headed by the entry shows the natural chain unless it says otherwise.
UniProt P45983: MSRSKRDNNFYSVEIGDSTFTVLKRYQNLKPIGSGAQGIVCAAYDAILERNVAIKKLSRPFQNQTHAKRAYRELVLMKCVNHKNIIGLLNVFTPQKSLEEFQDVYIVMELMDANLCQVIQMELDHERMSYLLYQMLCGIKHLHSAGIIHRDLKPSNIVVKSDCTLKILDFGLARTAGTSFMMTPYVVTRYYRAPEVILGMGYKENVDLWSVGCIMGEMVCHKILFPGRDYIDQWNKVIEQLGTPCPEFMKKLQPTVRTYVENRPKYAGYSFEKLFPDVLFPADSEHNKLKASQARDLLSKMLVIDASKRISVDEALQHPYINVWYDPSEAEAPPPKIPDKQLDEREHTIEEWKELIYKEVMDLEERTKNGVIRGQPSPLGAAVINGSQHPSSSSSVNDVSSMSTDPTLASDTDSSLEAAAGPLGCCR

Key:
[1] = target: T1, β6 cytoplasmic tail peptide (52 amino acid long β6 cytoplasmic tail); test: plate assay with increasing concentrations of the β6 cytoplasmic tail peptide, detection with anti-JNK-1 mAb SC 474-G
T1 sequence (peptide): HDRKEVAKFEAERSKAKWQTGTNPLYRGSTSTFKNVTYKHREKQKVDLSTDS

[2] = target: T2, 15 mer test peptide seq. 4, …; test: peptide ELISA with ERK2 cleaved from GST-ERK2 by thrombin
T2 sequence (peptide, biotinylated): RSKAKWQTGTNPLYR

[3] = target: T3, 10 mer peptide 10(4), …; test: as above
T3 sequence (peptide): RSKAKNPLYR

Substance	binding [1]	binding [2]	binding [3]
MAP kinase JNK-1 (Santa Cruz) (from UniProt P45983) (enzyme)	binds	–	–
ERK2 cleaved from GST-ERK2 by thrombin (enzyme)	–	binds	binds
